# Assay results as given in PMC9779606, “Synthesis, Structural Characterization and Biological Activity Evaluation of Novel Cu(II) Complexes with 3-(trifluoromethyl)phenylthiourea Derivatives” (International Journal of Molecular Sciences, 2022).
# Assays:
# Test in all cases: Cytotoxicity, MTT assay
# Assay type in all cases: cell-based, human
# Details in all cases: SI = IC50 for normal cell line (HaCaT)/IC50 cancer cell line
# [1] = tested on: SW480 (primary colon cancer)
# Description: (§1) MTT assay was performed as previously described. Experiments were repeated three times. […] Decreased relative MTT level means decreased cell viability.
# [2] = tested on: SW620 (metastatic colon cancer)
# Description: as §1
# [3] = tested on: PC3 (metastatic prostate cancer)
# Description: as §1
Compound,SI SW480 (Selectivity Index) [1],SI SW620 (Selectivity Index) [2],SI PC3 (Selectivity Index) [3]
"CC(NC(=S)[N-]c1cccc(C(F)(F)F)c1)c1ccccc1.CC(NC(=S)[N-]c1cccc(C(F)(F)F)c1)c1ccccc1.[Cu+2] (racemic) [Cu2, Copper(II) Complex with 1-(1-phenylethyl)-3-[3-(trifluoromethyl)phenyl]thiourea]",5.3,9.4,2.4
"FC(F)(F)c1cccc([N-]C(=S)NCCc2ccccc2)c1.FC(F)(F)c1cccc([N-]C(=S)NCCc2ccccc2)c1.O.[Cu+2] [Cu1, Copper(II) Complex with 1-(2-phenylethyl)-3-[3-(trifluoromethyl)phenyl]thiourea]",6.3,6.8,4.3
"FC(F)(F)c1cccc([N-]C(=S)NCc2ccccc2)c1.FC(F)(F)c1cccc([N-]C(=S)NCc2ccccc2)c1.[Cu+2] [Cu3, Copper(II) Complex with 1-benzyl-3-[3-(trifluoromethyl)phenyl]thiourea]",1.7,1.4,1.3
"FC(F)(F)c1cccc([N-]C(=S)Nc2cccc(Br)c2)c1.FC(F)(F)c1cccc([N-]C(=S)Nc2cccc(Br)c2)c1.[Cu+2] [Cu4, Copper(II) Complex with 1-(3-bromophenyl)-3-[3-(trifluoromethyl)phenyl] thiourea]",4.3,5.6,5.5
"O.O=[N+]([O-])c1cc(NC(=S)[N-]c2cccc(C(F)(F)F)c2)ccc1Cl.O=[N+]([O-])c1cc(NC(=S)[N-]c2cccc(C(F)(F)F)c2)ccc1Cl.[Cu+2] [Cu5, Copper(II) Complex with 1-(4-chloro-3-nitrophenyl)-3-[3-(trifluoromethyl)phenyl]thiourea]",9.1,6.9,11.5
